Source: PubChem BioAssay AID1259308 (NCATS, 2017)
Aim: 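Knock-downs that increase output of a recombinant reporter protein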 (primary screen). Cell system: human HEK293 embryonic kidney cells stably expressing firefly luciferase (HEK-CMV-Luc2-Hygro). Knock-down reagent: single siRNA against human genes, 0.8 pmol siRNA per well. Time to read-out: 72 h. Measurement: 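Reporter luminescence and viable-cell signal on separate replicate plates, given as percent of non-targeting control and median/MAD z-scores, plus per-cell luciferase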. Direction: total luciferase, z-score: higher = more reporter protein produced. Active means: 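Active when the median/MAD z-score for overall luciferase is greater than 3; a gene was taken forward for validation with new siRNAs if at least two of its three siRNAs passed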. Meaning of the calls: active = raised luciferase; inactive = no rise.
This is a random part of about 59,000 reagents. In the full data, about 1,510 (2.6%) got an active call. 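Calls use total luciferase alone and ignore viability, so some active siRNAs may act by altering cell number.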 Reagents against one gene are numbered here. Not all columns of the deposit are shown.

| gene | reagent | total luciferase, z-score | outcome |
| --- | --- | --- | --- |
| FAM177A1P1 | 1 | 2.11 | inactive |
| FAM177A1P1 | 2 | -0.454 | inactive |
| FAM177A1P1 | 3 | 0.112 | inactive |
| KRTAP1-1 | 1 | -0.0469 | inactive |
| KRTAP1-1 | 2 | 1.17 | inactive |
| KRTAP1-1 | 3 | -0.934 | inactive |
| EPB41L1 | 1 | -0.631 | inactive |
| EPB41L1 | 2 | 2.74 | inactive |
| EPB41L1 | 3 | -1.35 | inactive |
| PCDHB12 | 1 | -0.563 | inactive |
| PCDHB12 | 2 | -0.541 | inactive |
| PCDHB12 | 3 | -0.0514 | inactive |
| ARHGEF34P | 1 | -0.361 | inactive |
| ARHGEF34P | 2 | -0.58 | inactive |
| ARHGEF34P | 3 | 1.33 | inactive |
| SON | 1 | -2.63 | inactive |
| SON | 2 | -2.74 | inactive |
| SON | 3 | -3.11 | inactive |
| KCNK15 | 1 | -1.05 | inactive |
| KCNK15 | 2 | -1.43 | inactive |
| KCNK15 | 3 | -1.24 | inactive |
| PRDM7 | 1 | 1.9 | inactive |
| PRDM7 | 2 | 0.868 | inactive |
| PRDM7 | 3 | -0.46 | inactive |
| KYNUP2 | 1 | 0.157 | inactive |
| KYNUP2 | 2 | -0.673 | inactive |
| KYNUP2 | 3 | 0.333 | inactive |
| RASA4CP | 1 | 0.71 | inactive |
| RASA4CP | 2 | -1.05 | inactive |
| RASA4CP | 3 | 1.42 | inactive |
| P2RX4 | 1 | 3.24 | active |
| P2RX4 | 2 | 0.591 | inactive |
| P2RX4 | 3 | -0.348 | inactive |
| CICP18 | 1 | -0.517 | inactive |
| CICP18 | 2 | 0.595 | inactive |
| CICP18 | 3 | -0.597 | inactive |
| CYP11B2 | 1 | -0.493 | inactive |
| CYP11B2 | 2 | 1.63 | inactive |
| CYP11B2 | 3 | -1.32 | inactive |

Targets above whose target name begins with K or k (9):
| gene | reagent | total luciferase, z-score | outcome |
| --- | --- | --- | --- |
| KRTAP1-1 | 1 | -0.0469 | inactive |
| KRTAP1-1 | 2 | 1.17 | inactive |
| KRTAP1-1 | 3 | -0.934 | inactive |
| KCNK15 | 1 | -1.05 | inactive |
| KCNK15 | 2 | -1.43 | inactive |
| KCNK15 | 3 | -1.24 | inactive |
| KYNUP2 | 1 | 0.157 | inactive |
| KYNUP2 | 2 | -0.673 | inactive |
| KYNUP2 | 3 | 0.333 | inactive |
